According to patent publication US20200121716A1, “Method for Inhibiting Both Glycolysis and Glutamine Metabolism in Cells and Use Thereof” (priority 2017, published 2020):
“Also recorded” adds a separate entry of the source. At least one structure is not confirmed: it was looked up by name or label, or the drawing left a doubt.

Key:
[1] = test system: fly maggot eggs; test: meat slice preservative experiment
[2] = test system: fermenting microorganism; test: flour fermentation experiment; type: cell-based; details: 50 g flour, about 50 g water, about 200 μg selenium, after 2 days; without: acidic odor
Experimental: Two portions of flour (50 g each) were used for fermentation experiments. Each portion was mixed with an equal amount (about 50 g) of water, and to one of the mixtures sodium selenite having about 200 μg selenium was added. […] The same phenomenon was observed over 20 days of continuous monitoring (the contrast between flour fragrance and the acidic odor). As measured by pH test paper, the flour with sodium selenite on the second day of fermentation was slightly alkaline with a pH of 7-8, while the flour without sodium selenite was acidified after fermentation with a pH of 4-5. […] Since tumor cells and anaerobia cells have the same steps and processes of chemical reactions in glycolysis, it is believed that tumor cells would either stop metabolism and die, or change the metabolic pattern and turn into normal cells.

[3] = test system: onychomycosis; test: trial application to patients with onychomycosis; details: 20 ppm selenium in 75% medical alcohol
[4] = spraying on brown spots on the face; type: in vivo, human
[5] = test system: hepatic cysts; test: daily sodium selenite in a patient with hepatic cysts; type: in vivo, human; details: about 200 μg every day from June 2017, report of March 2018
[6] = trials on patients with gastric ulcer or gastrointestinal inflammation; type: in vivo, human; details: 91.3 μg selenium every two days, after 2 weeks
[7] = test system: hircismus; test: trial application to patients with hircismus; type: in vivo, human; details: 100 ppm selenium in 5% acetic acid; one patient same day, then 16 patients
[8] = trial application to psoriasis, itchy skin, tineapediss, vesicles on feet, acne; type: in vivo, human; details: 20 ppm selenium in 75% medical alcohol
[9] = test system: glutamine metabolism; test: spontaneous fermentation of flour paste mixed with glutamine; type: cell-based; details: as fermentation proceeded; without: unpleasant odor
[10] = test system: bacteria; test: preservative effect on lettuce leaf, loofah juice and celery leaf in water; details: solution having 0.5 ppm sodium selenite

O=[Se](O)O [sodium selenite]
maggots on the meat slice [1]: no maggot | odor of fermented flour [2]: still emitted a flour fragrance | time until infected nails exfoliated ([3]; about 60 people): one week to six months | toenail color ([3]; once a day, third day, one patient): changed from grayish yellow to a relatively normal color | colored spots on the face after 2 months ([4]; 5 ppm aqueous solution sprayed): generally disappeared | colored spots on the face after 2 weeks ([4]; 5 ppm aqueous solution sprayed): obviously faded | colored spots in more than 10 people ([4]; 5 ppm sodium selenite solution and randomly 3% aqueous sodium formate solution): faded or disappeared colored spots | growth of hepatic cysts (maximum cross-sectional area) [5]: noticeably slowed-down growth rate | stomach discomfort in gastric ulcer patients [6]: basically disappeared | hircismus odor [7]: substantially disappeared; also recorded: exactly the same effect was obtained without exception | skin state in about 100 people with tineapediss, vesicles on feet, acne, itching ([8]; about half a year): improvement in skin appearance to a healthy state and itching relief | symptoms of itching and psoriasis ([8]; once a day, after 2 weeks): basically disappeared | fermentation products of the flour paste [9]: only produced a large amount of carbon dioxide bubbles | fading of celery leaf [10]: did not fade or faded slowly
